No constants are given. Whether binding was seen depends on the method and setting. Binding seen in cells or lysates may run through a third protein. Here binding means that the protein was enriched with, or labelled near, the bait; the list need not be complete.
Target: DNAAF9 (human Shulin), endogenous in human airway epithelial cells (human (endogenous in HAECs)) (UniProt Q5TEA3)
Assay: affinity purification with mass spectrometry

Amino acid sequences for entries named in this document (tags omitted).
UniProt Q5TEA3: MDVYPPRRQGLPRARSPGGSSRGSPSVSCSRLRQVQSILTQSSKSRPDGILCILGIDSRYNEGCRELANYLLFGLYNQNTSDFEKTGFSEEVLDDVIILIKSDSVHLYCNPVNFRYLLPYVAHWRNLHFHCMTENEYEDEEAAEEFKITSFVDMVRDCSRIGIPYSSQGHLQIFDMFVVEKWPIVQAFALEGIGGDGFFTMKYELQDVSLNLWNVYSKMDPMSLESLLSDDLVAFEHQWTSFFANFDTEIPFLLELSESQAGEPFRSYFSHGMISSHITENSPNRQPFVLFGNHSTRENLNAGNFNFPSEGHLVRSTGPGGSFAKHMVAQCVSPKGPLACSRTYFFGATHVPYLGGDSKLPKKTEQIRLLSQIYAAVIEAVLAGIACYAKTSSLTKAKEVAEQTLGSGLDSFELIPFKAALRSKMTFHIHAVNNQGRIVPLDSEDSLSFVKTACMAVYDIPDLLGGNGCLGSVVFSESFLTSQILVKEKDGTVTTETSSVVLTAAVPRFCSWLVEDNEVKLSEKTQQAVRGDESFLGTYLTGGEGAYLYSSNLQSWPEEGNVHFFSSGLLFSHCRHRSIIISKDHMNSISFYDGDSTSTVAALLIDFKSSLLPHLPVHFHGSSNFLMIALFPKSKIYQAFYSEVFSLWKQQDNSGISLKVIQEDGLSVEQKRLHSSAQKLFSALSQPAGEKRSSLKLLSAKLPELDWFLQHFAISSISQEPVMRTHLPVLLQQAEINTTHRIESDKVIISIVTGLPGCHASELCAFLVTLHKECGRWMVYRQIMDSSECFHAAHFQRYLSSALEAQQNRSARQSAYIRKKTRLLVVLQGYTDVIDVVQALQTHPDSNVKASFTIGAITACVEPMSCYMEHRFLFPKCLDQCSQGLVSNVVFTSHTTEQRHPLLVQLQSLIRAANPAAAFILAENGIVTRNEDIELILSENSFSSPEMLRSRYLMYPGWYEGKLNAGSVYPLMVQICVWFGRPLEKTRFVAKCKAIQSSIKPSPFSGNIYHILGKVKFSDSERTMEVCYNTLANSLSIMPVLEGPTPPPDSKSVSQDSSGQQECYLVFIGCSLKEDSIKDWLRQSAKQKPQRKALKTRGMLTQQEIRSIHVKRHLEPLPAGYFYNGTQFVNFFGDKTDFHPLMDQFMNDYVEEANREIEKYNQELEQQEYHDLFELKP
UniProt P36405: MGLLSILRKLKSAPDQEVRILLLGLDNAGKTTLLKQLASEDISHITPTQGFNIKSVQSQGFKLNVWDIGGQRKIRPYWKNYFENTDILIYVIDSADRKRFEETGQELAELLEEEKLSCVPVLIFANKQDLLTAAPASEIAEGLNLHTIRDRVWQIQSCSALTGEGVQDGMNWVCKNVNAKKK
UniProt Q8TE73: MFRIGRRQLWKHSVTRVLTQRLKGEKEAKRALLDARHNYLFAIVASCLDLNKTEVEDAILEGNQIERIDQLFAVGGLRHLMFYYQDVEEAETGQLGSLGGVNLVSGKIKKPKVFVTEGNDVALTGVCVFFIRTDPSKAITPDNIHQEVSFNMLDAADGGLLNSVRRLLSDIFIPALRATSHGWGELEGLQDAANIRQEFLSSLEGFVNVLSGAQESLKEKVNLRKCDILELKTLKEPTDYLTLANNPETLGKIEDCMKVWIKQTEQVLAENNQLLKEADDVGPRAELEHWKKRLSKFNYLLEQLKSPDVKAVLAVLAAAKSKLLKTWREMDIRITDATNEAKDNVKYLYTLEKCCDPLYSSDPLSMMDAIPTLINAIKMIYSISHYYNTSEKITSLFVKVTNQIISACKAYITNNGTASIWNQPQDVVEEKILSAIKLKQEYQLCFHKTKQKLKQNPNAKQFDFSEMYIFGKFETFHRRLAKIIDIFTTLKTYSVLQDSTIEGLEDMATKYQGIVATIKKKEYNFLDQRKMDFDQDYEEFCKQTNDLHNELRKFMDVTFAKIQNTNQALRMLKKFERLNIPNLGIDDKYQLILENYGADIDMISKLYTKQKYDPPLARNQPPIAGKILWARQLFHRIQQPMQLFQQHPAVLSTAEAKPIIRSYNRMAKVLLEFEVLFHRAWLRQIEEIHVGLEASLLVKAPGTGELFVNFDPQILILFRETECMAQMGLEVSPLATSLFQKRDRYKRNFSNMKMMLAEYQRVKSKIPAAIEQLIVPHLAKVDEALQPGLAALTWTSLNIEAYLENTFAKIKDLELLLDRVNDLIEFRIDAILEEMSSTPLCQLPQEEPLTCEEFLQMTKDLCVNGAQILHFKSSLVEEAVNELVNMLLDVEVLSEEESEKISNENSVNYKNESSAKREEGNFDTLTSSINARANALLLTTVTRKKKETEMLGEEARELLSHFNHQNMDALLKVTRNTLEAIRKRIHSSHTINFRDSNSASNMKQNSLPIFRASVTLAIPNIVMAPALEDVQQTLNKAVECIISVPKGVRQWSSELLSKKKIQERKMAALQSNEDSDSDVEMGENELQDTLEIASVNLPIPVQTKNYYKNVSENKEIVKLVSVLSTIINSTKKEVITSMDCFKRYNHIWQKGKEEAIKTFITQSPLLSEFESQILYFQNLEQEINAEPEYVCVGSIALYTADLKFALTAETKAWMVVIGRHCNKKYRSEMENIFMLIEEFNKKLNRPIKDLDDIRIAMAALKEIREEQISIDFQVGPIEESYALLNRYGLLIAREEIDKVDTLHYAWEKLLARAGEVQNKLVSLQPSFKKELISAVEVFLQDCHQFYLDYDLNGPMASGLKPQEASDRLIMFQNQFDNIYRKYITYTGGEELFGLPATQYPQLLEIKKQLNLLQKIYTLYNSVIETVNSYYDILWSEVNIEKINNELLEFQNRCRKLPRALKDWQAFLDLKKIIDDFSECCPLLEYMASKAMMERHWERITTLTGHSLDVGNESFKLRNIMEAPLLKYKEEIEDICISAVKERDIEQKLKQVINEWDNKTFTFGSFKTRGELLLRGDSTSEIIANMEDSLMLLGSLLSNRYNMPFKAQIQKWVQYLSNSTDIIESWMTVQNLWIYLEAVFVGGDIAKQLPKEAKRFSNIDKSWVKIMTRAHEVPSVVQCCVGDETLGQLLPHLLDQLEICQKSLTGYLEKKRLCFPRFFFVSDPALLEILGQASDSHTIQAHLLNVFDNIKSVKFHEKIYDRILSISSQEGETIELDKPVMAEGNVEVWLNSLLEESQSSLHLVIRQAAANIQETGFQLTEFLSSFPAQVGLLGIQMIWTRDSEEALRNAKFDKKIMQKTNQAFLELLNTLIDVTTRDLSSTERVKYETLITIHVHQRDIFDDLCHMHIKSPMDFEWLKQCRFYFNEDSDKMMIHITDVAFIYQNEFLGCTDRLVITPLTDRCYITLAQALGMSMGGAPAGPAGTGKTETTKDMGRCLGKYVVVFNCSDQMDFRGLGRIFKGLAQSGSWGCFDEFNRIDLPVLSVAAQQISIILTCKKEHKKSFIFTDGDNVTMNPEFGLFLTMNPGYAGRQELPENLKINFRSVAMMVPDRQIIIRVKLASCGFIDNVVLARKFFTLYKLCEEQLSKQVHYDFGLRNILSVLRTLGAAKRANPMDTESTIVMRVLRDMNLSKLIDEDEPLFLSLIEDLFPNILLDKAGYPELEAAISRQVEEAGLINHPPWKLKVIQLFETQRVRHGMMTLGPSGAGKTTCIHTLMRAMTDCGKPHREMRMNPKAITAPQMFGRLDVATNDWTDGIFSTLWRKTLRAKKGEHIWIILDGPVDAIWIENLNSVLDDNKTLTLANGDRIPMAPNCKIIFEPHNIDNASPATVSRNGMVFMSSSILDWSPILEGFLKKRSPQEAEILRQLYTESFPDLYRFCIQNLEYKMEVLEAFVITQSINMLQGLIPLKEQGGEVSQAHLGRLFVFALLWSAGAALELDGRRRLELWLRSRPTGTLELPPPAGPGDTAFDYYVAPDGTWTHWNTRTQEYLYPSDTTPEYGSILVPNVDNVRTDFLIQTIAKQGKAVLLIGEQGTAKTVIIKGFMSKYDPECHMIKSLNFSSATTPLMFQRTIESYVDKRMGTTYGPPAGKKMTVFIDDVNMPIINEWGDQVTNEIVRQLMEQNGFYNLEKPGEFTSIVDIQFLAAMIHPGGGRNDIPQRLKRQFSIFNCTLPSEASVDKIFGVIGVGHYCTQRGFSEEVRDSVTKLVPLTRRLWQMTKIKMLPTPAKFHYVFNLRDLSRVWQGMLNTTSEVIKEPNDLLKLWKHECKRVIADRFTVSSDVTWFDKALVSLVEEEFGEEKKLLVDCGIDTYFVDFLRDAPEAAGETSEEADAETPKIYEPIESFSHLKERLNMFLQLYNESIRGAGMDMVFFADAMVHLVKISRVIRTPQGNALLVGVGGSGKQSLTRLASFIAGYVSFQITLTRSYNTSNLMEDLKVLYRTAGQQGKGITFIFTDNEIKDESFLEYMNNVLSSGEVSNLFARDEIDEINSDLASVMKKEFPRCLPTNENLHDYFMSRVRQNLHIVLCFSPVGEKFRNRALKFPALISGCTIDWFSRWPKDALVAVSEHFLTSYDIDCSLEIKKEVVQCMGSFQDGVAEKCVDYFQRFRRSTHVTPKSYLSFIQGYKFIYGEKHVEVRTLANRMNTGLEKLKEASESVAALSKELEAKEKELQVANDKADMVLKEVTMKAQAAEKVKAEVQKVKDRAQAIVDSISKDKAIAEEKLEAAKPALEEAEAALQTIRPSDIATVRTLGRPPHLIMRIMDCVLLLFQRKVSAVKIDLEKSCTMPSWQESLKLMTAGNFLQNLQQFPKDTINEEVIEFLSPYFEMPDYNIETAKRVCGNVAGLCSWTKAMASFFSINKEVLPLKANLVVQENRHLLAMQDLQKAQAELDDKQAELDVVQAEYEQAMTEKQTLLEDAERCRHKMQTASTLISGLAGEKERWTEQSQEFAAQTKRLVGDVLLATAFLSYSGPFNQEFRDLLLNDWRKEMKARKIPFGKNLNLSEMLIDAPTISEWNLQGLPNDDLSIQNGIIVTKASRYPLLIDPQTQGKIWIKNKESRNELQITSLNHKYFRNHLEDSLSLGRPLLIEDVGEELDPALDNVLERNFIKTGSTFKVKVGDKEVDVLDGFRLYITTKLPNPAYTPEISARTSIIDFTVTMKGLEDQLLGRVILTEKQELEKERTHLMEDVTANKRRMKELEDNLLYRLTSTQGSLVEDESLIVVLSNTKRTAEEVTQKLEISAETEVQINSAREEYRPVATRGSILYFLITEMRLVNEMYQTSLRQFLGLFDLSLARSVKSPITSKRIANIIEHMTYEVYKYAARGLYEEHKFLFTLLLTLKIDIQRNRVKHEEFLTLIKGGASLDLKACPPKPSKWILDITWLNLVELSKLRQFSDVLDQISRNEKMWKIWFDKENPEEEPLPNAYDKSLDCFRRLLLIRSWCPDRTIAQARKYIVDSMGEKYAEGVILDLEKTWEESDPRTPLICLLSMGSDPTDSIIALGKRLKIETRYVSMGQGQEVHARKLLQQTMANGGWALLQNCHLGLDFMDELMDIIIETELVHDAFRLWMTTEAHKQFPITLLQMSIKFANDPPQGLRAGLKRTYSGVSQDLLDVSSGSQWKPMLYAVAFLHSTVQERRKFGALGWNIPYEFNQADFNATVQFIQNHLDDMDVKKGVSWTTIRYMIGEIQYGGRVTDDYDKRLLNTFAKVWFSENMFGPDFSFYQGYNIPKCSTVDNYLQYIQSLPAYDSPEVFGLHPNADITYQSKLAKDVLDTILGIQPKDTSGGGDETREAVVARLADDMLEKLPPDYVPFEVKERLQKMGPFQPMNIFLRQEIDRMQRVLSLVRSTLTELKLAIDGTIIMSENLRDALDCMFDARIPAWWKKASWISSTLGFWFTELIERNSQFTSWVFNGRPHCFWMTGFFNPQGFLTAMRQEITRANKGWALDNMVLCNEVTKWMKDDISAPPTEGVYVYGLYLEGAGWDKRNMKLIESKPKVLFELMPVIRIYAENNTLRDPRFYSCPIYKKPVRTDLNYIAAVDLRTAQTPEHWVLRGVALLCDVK
UniProt Q13561: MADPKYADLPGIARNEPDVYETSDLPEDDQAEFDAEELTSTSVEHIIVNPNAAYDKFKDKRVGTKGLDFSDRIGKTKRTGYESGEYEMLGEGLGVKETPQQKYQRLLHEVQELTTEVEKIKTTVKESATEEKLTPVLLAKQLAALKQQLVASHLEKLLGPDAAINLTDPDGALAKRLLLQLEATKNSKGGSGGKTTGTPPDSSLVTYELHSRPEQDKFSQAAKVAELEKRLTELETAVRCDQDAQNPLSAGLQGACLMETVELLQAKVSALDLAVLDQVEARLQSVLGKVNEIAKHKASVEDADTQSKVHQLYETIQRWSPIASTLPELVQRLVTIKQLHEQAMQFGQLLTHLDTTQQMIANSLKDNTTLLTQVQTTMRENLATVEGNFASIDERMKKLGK
UniProt Q03135: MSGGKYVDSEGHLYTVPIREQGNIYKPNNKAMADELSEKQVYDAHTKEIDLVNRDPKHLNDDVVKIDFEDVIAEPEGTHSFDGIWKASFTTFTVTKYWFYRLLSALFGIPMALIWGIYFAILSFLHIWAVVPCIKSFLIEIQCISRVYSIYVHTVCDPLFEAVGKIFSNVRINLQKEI

ARL3, endogenous in human airway epithelial cells (from UniProt P36405 1-182)
binding: binds

DYNC1H1 (from UniProt Q14204 1-4646)
binding: binds

DNAH5 (from UniProt Q8TE73 1-4624)
binding: binds

DCTN2 (from UniProt Q13561 1-401)
binding: binds

CAV1 (from UniProt Q03135 1-178)
binding: binds

DNAH9 (from UniProt Q9NYC9 1-4486)
binding: binds

— article doi:10.1101/2024.08.15.608058
